Experimental data reported in article PMC8241718.
Results are given in words; binding and its absence hold for the method and conditions named. Binding seen in cells or lysates may run through a third protein. Binding calls can cover weak binding; strength is not graded here. Tags and fused reporters may be left off the sequences shown.

Target: T1, Flag-DUSP9 (adenoviral, in NRVM) (UniProt Q99956)
T1 sequence: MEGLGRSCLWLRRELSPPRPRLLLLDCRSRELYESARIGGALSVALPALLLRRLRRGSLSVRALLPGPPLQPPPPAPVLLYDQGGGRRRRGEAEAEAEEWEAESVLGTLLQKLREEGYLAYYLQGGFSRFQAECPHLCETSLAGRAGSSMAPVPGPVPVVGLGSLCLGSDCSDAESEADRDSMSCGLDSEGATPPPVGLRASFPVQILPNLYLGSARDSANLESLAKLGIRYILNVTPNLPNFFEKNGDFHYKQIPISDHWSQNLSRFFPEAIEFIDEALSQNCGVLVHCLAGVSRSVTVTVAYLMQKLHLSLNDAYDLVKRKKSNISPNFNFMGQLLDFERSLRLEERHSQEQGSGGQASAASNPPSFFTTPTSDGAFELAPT
Assay: co-IP; NRVM infected with Flag-DUSP9 (adenoviral); endogenous ASK1; which protein was precipitated is not told

endogenous ASK1 (apoptosis signal-regulating kinase 1) of NRVM (rat (endogenous in NRVM)) (enzyme)
binding: binds
